## Screening data, single-dose tests

A: 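Phenotypic screen: M. tuberculosis growth, cholesterol and DPPC medium, 4 days; the read-out is not stated. Tested at 50 µM. The record gives no direction; compounds that gave an IC50 in retests scored well above the rest, so higher reads as more growth inhibition. Of about 69,000 compounds tested this way, about 370 (0.54%) reached 50% or more in at least one test.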
B: 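Whole-cell growth test on Mycobacterium tuberculosis, read after 3 days in glucose-containing 7H9 medium; the read-out is not stated. Tested at 50 µM. Higher reads as more growth inhibition (inferred: compounds with an IC50 in retests scored well above the rest). About 69,000 compounds were tested under these conditions; 1.1% (about 760) showed 50% or more at least once.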

Values are the deposited “Percent Effect”, in %. How 0% and 100% were set is not recorded. Most values in the screen are low, and negative values occur. Compounds were drawn at random from those tested, without regard to their results. Two or more numbers in one place are separate tests of the same structure; such repeats can differ widely.

| structure | A | B |
|---|---|---|
| `CN(C)Cc1cnc2n1CCN(C(=O)NC1CCCC1)CC2.O=C(O)C(F)(F)F` | 7.976 | -27.95 and -2.89 |
| `Cc1ccc(CNCCCNS(C)(=O)=O)c(Br)c1` | 7.528 | 3.085 and -9.629 |
| `CCCn1nc2c(cc1=O)CN(C(C)C(=O)Nc1nccs1)CC2` (centres unmarked) | -11.76 | -10.15 |
| `O=C(O)C(F)(F)F.[H][C@@]12CCN(c3nnc(C)s3)C[C@@]1([H])O[C@H](c1nc(C)no1)C2` | 3.056 | -12.06 |
| `Cc1cnn(CC2CCCN2Cc2nc3ccccc3n2C)c1` (centres unmarked) | 26.67 | 29.79 |
| `CC(C)c1nccn1C(C)C(=O)NC1CCN(S(C)(=O)=O)CC1` (centres unmarked) | -9.493 | -0.9822 |
| `COc1ccccc1NCC(=O)NCc1ccc(-c2ccn[nH]2)cc1` | 14.99 | 25.82 |
| `CC(C)[C@H](NS(C)(=O)=O)C(=O)NCc1cc(-c2ccco2)n[nH]1` | 8.416 | 36.7 |
| `O=S1(=O)CCC(N(Cc2nc3ccccc3o2)Cc2cccs2)C1` (centres unmarked) | -8.973 | -33.96 |
| `Cc1cccc(-c2ccc(C(=O)N3CCN(C(C)C)CC3)c(=O)[nH]2)c1` | 7.372 | 5.196 and -7.551 |
| `Cc1cnc(C)c(Oc2ccc(CN3CCCC3)cc2Cl)n1` | 1.052 | -16.47 |
| `CCn1ccnc1CNc1nccc(-c2c(C)nn(C)c2C)n1` | -7.089 | -14.27 |
| `COc1ccc(C(=O)N(CCC#N)Cc2ccccn2)cc1` | -16.87 and -6.098 | 5.219 |
| `Cc1cnc(C)c(N2CC[C@H](N3CCOCC3)[C@H](CCCO)C2)n1` | 23.85 | -10.08 |
| `CCN(CC)C(=O)CN(C)CCn1nc2ccccn2c1=O` | -10.93 | -9.501 |
| `COc1ccc(NC(C)c2ccc(C#N)cc2)cc1N1CCCC1=O` (centres unmarked) | 3.549 | -2.533 and 5.581 |
| `Cc1cc(NC(=O)CN2CCCC2c2noc(C3CC3)n2)n(C)n1` (centres unmarked) | 26.16 | 8.256 |
| `COc1ccccc1-c1ncc(CN2CCC3(CCN(C)C3)CC2)cn1` | 6.999 | -1.341 |
| `CC(C)(O)C1CCCN(C(=O)Nc2nc(-c3ccccc3)ns2)C1` (centres unmarked) | -2.41 and 2.411 | 16.27 and 7.845 |
| `CCC(CC)NC(=O)Cn1cc(-c2ccccc2)cn1` | -0.7881 | 8.807 |
| `CCc1[nH]c2c(CNC(=O)C3CCS(=O)(=O)CC3)cc(C)cc2c1C` | -18.51 | -61.44 and 14.36 |
| `CCOCC1CC2(CCN(C(=O)c3cscn3)CC2)CO1` (centres unmarked) | -12.78 | -8.049 |
| `CNC(=O)CN1C(=O)CCC12CCCN(Cc1cccc(F)c1)C2.O=C(O)C(F)(F)F.O=C(O)C(F)(F)F` (centres unmarked) | -8.875 | -15.56 |
| `COc1cccc(COCC(=O)N2CCCN(CC(N)=O)CC2)c1` | -1.596 | -0.79 |
| `Cc1noc(C)c1CN1CCC2(CC1)CC(Oc1cccnc1)CO2.O=C(O)C(F)(F)F` (centres unmarked) | -1.129 | -35.58 and 1.054 |
| `CN(C)CCN1CCOC2(CCN(c3nccs3)CC2)c2ccccc21` | 2.413 | 11.38 and 24.53 |
| `Cc1cccc(OCCNC(=O)CN2CCCC2Cn2cncn2)c1` (centres unmarked) | 6.868 | 8.426 |
| `CCCc1nc(CN2CCOC(Cn3cncn3)C2)cs1` (centres unmarked) | -27.34 | -58.15 |
| `Cc1nc(C2CCCNC2)cc(N2CCc3nc(N)sc3C2)n1` (centres unmarked) | -2.657 | 38.79 and 18.92 |
| `COc1ncc(CN2CC[C@@](C)(O)[C@H](Oc3cccc(F)c3)C2)cn1` | 3.855 | -8.867 |
| `COc1cccc(NC(=O)N(CCO)C2CCc3ccccc32)c1` (centres unmarked) | -15.94 | -1.446 |
| `[H][C@]12CC[C@]([H])(CN(C3Cc4ccccc4C3)C1)N(C(=O)OCCOC)C2` | 15.66 | 43.79 and 8.499 |
| `Cc1nc(NCc2ccccc2)cc(C(C)Cn2nc(C)c(C)c2C)n1` (centres unmarked) | 31.92 and -9.268 | -1.783 |
| `[H][C@@]12C[C@@H](OCc3ccccc3)C[C@]1([H])CN(Cc1cnc(C)nc1)C2` | -9.2 | 9.877 |
| `COCCN1CC[C@]2(CN(C(=O)c3ccc[nH]3)C[C@H]2C)C1=O` | 12.05 | 13.54 |
| `CCN1C(=O)CCC12CCN(S(=O)(=O)c1ccccc1)CC2` | 3.149 | -9.602 |
| `CCN(CC)C(CNCc1ccc(C)o1)c1ccco1` (centres unmarked) | -19.15 | 6.12 |
| `COC(=O)C1CCCN1Cc1ccco1` (centres unmarked) | -21.17 | -2.981 and -10.8 |
| `CCN(c1cc(C)cc(C)c1)S(=O)(=O)c1cc(C(=O)O)cs1` | 8.04 | 5.615 |
| `CCC(CN1CCOCC1)NC(=O)Cc1c(C)[nH]c2cc(C)cc(C)c12` (centres unmarked) | 8.186 | 23.23 |
| `COc1ccc(COCC(O)CNC(=O)c2cc(C)oc2C)cc1` (centres unmarked) | -13.59 | 6.244 |
| `Nc1cc(CC2COc3ccccc3C2)ccn1` (centres unmarked) | 10.14 and -19.55 | -21.05 |
| `COc1ccc(CNC(C)c2cccc(Br)c2)c(OC)c1OC.Cl` (centres unmarked) | 8.707 and 3.626 | 20.14 |

The first 5 entries again:

{"structure": "CN(C)Cc1cnc2n1CCN(C(=O)NC1CCCC1)CC2.O=C(O)C(F)(F)F", "A": 7.976, "B": "-27.95 and -2.89"}
{"structure": "Cc1ccc(CNCCCNS(C)(=O)=O)c(Br)c1", "A": 7.528, "B": "3.085 and -9.629"}
{"structure": "CCCn1nc2c(cc1=O)CN(C(C)C(=O)Nc1nccs1)CC2", "stereo": "centres unmarked", "A": -11.76, "B": -10.15}
{"structure": "O=C(O)C(F)(F)F.[H][C@@]12CCN(c3nnc(C)s3)C[C@@]1([H])O[C@H](c1nc(C)no1)C2", "A": 3.056, "B": -12.06}
{"structure": "Cc1cnn(CC2CCCN2Cc2nc3ccccc3n2C)c1", "stereo": "centres unmarked", "A": 26.67, "B": 29.79}

Source: ChEMBL document CHEMBL3988442, “University of Dundee, Small-Polar-MMV Screening Library” (2021).